# The supplement of paper PMC8728848
# Some of the results follow.
# B1: Mincle (Bos taurus) (protein)
# chain: MNSSTSPASQTERRCFSFQLFSWAIAGTSILLLSACFITRCVVTYSIFQLCDEKKFQPPGDSMELSCYNDGSGSVKNCCPLKWFHFQSSCYLFSPDTMSWRASLKNCSSMGAHLVVINTQEEQEFLYYTKPRKKEFYIGLTDQVTEGQWQWVDGTPFTKSLSFWDAGEPNNLVIVEDCATIRDSSNPRQNWNDVPCFFNMFRVCEMPERKI
# Assays:
# Assay in all cases: glycan array binding signal (z-score within array); higher = stronger binding
# Details in all cases: glycan notation: IUPAC condensed, linker removed
# [1] = molecular target: Gal(b1-2)Gal
# Summary of the method: (§1)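 The binding signal is a Z-score computed within each array. Data were drawn from 3228 arrays in the Consortium for Functional Glycomics database, restricted to those with a known protein sequence. Scores were averaged over arrays of the same protein sequence at different concentrations or buffers, and over linkers, and negative values can be taken as non-binding.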
# [2] = molecular target: Gal(b1-3)Gal
# Summary of the method: as §1
# [3] = molecular target: Gal(b1-3)Gal(b1-4)GlcNAc
# Summary of the method: as §1
# [4] = molecular target: Gal(b1-3)GalNAc
# Summary of the method: as §1
# [5] = molecular target: Gal(b1-3)GalNAc(a1-3)[Fuc(a1-2)]Gal(b1-4)Glc
# Summary of the method: as §1
# [6] = molecular target: Gal(b1-3)GalNAc(a1-3)[Fuc(a1-2)]Gal(b1-4)GlcNAc
# Summary of the method: as §1
# [7] = molecular target: Gal(b1-3)GalNAc(b1-3)Gal
# Summary of the method: as §1
# [8] = molecular target: Gal(b1-3)GalNAc(b1-3)Gal(a1-4)Gal(b1-4)Glc
# Summary of the method: as §1
# [9] = molecular target: Gal(b1-3)GalNAc(b1-4)Gal(b1-4)Glc
# Summary of the method: as §1
# [10] = molecular target: Gal(b1-3)GalNAc(b1-4)[Neu5Ac(a2-3)]Gal(b1-4)Glc
# Summary of the method: as §1
# [11] = molecular target: Gal(b1-3)GlcNAc
# Summary of the method: as §1
# [12] = molecular target: Gal(b1-3)GlcNAc(a1-3)Gal(b1-4)GlcNAc
# Summary of the method: as §1
# [13] = molecular target: Gal(b1-3)GlcNAc(a1-6)Gal(b1-4)GlcNAc
# Summary of the method: as §1
# [14] = molecular target: Gal(b1-3)GlcNAc(b1-2)Man
# Summary of the method: as §1
# [15] = molecular target: Gal(b1-3)GlcNAc(b1-2)Man(a1-3)[Gal(b1-3)GlcNAc(b1-2)Man(a1-6)]Man(b1-4)GlcNAc(b1-4)GlcNAc
# Summary of the method: as §1
# [16] = molecular target: Gal(b1-3)GlcNAc(b1-2)Man(a1-3)[Gal(b1-3)GlcNAc(b1-2)Man(a1-6)]Man(b1-4)GlcNAc(b1-4)[Fuc(a1-6)]GlcNAc
# Summary of the method: as §1
# [17] = molecular target: Gal(b1-3)GlcNAc(b1-2)Man(a1-3)[GlcNAc(b1-4)][Gal(b1-3)GlcNAc(b1-2)Man(a1-6)]Man(b1-4)GlcNAc(b1-4)GlcNAc
# Summary of the method: as §1
# [18] = molecular target: Gal(b1-3)GlcNAc(b1-2)[Gal(b1-3)GlcNAc(b1-6)]Man(a1-6)[Gal(b1-3)GlcNAc(b1-2)Man(a1-3)]Man(b1-4)GlcNAc(b1-4)GlcNAc
# Summary of the method: as §1
# [19] = molecular target: Gal(b1-3)GlcNAc(b1-3)Gal(b1-3)GlcNAc
# Summary of the method: as §1
# [20] = molecular target: Gal(b1-3)GlcNAc(b1-3)Gal(b1-4)Glc
# Summary of the method: as §1
# [21] = molecular target: Gal(b1-3)GlcNAc(b1-3)Gal(b1-4)GlcNAc
# Summary of the method: as §1
# [22] = molecular target: Gal(b1-3)GlcNAc(b1-3)Gal(b1-4)GlcNAc(b1-2)Man(a1-3)[Gal(b1-3)GlcNAc(b1-3)Gal(b1-4)GlcNAc(b1-2)Man(a1-6)]Man(b1-4)GlcNAc(b1-4)GlcNAc
# Summary of the method: as §1
# [23] = molecular target: Gal(b1-3)GlcNAc(b1-3)Gal(b1-4)GlcNAc(b1-2)[Gal(b1-3)GlcNAc(b1-3)Gal(b1-4)GlcNAc(b1-6)]Man(a1-6)[Gal(b1-3)GlcNAc(b1-3)Gal(b1-4)GlcNAc(b1-2)Man(a1-3)]Man(b1-4)GlcNAc(b1-4)[Fuc(a1-6)]GlcNAc
# Summary of the method: as §1
# [24] = molecular target: Gal(b1-3)GlcNAc(b1-3)Gal(b1-4)GlcNAc(b1-3)Gal(b1-4)GlcNAc(b1-2)[Gal(b1-3)GlcNAc(b1-3)Gal(b1-4)GlcNAc(b1-3)Gal(b1-4)GlcNAc(b1-6)]Man(a1-6)[Gal(b1-3)GlcNAc(b1-3)Gal(b1-4)GlcNAc(b1-3)Gal(b1-4)GlcNAc(b1-2)Man(a1-3)]Man(b1-4)GlcNAc(b1-4)[Fuc(a1-6)]GlcNAc
# Summary of the method: as §1
# [25] = molecular target: Gal(b1-3)GlcNAc(b1-3)Gal(b1-4)GlcNAc(b1-6)[Gal(b1-3)GlcNAc(b1-3)]Gal(b1-4)Glc
# Summary of the method: as §1
# [26] = molecular target: Gal(b1-3)GlcNAc(b1-3)Gal(b1-4)[Fuc(a1-3)]GlcNAc
# Summary of the method: as §1
# [27] = molecular target: Gal(b1-3)GlcNAc(b1-3)Gal(b1-4)[Fuc(a1-3)]GlcNAc(b1-6)[Gal(b1-3)GlcNAc(b1-3)]Gal(b1-4)Glc
# Summary of the method: as §1
# [28] = molecular target: Gal(b1-3)GlcNAc(b1-3)GalNAc
# Summary of the method: as §1
# [29] = molecular target: Gal(b1-3)GlcNAc(b1-6)Gal(b1-4)GlcNAc
# Summary of the method: as §1
# [30] = molecular target: Gal(b1-3)GlcNAc(b1-6)GalNAc
# Summary of the method: as §1
# [31] = molecular target: Gal(b1-3)GlcNAc(b1-6)[Gal(b1-3)]GalNAc
# Summary of the method: as §1
# [32] = molecular target: Gal(b1-3)GlcNAc6S
# Summary of the method: as §1
# [33] = molecular target: Gal(b1-3)[Fuc(a1-4)]GlcNAc
# Summary of the method: as §1
# [34] = molecular target: Gal(b1-3)[Fuc(a1-4)]GlcNAc(b1-2)Man
# Summary of the method: as §1
# [35] = molecular target: Gal(b1-3)[Fuc(a1-4)]GlcNAc(b1-2)Man(a1-3)[Gal(b1-3)[Fuc(a1-4)]GlcNAc(b1-2)Man(a1-6)]Man(b1-4)GlcNAc(b1-4)[Fuc(a1-6)]GlcNAc
# Summary of the method: as §1
# [36] = molecular target: Gal(b1-3)[Fuc(a1-4)]GlcNAc(b1-3)Gal(b1-3)[Fuc(a1-4)]GlcNAc
# Summary of the method: as §1
# [37] = molecular target: Gal(b1-3)[Fuc(a1-4)]GlcNAc(b1-3)Gal(b1-4)[Fuc(a1-3)]GlcNAc
# Summary of the method: as §1
# [38] = molecular target: Gal(b1-3)[Fuc(a1-4)]GlcNAc(b1-6)GalNAc
# Summary of the method: as §1
# [39] = molecular target: Gal(b1-3)[GlcNAc(b1-6)]GalNAc
# Summary of the method: as §1
# [40] = molecular target: Gal(b1-3)[Neu5Ac(a2-6)]GalNAc
# Summary of the method: as §1
# [41] = molecular target: Gal(b1-3)[Neu5Ac(a2-6)]GlcNAc(b1-4)Gal(b1-4)Glc
# Summary of the method: as §1
# [42] = molecular target: Gal(b1-3)[Neu5Ac(b2-6)]GalNAc
# Summary of the method: as §1
# [43] = molecular target: Gal(b1-4)Gal
# Summary of the method: as §1
# [44] = molecular target: Gal(b1-4)GalNAc(a1-3)[Fuc(a1-2)]Gal(b1-4)GlcNAc
# Summary of the method: as §1
# [45] = molecular target: Gal(b1-4)GalNAc(b1-3)[Fuc(a1-2)]Gal(b1-4)GlcNAc
# Summary of the method: as §1
binder,measurement,setting,value
B1,glycan array binding signal (z-score),[1],-0.325
same,glycan array binding signal (z-score),[2],-0.063
same,glycan array binding signal (z-score),[3],-0.462
same,glycan array binding signal (z-score),[4],-0.37
same,glycan array binding signal (z-score),[5],-0.069
same,glycan array binding signal (z-score),[6],-0.936
same,glycan array binding signal (z-score),[7],-0.104
same,glycan array binding signal (z-score),[8],0.036
same,glycan array binding signal (z-score),[9],-0.247
same,glycan array binding signal (z-score),[10],-0.836
same,glycan array binding signal (z-score),[11],-0.316
same,glycan array binding signal (z-score),[12],0.206
same,glycan array binding signal (z-score),[13],-1.05
same,glycan array binding signal (z-score),[14],0.665
same,glycan array binding signal (z-score),[15],1.51
same,glycan array binding signal (z-score),[16],0.025
same,glycan array binding signal (z-score),[17],-0.111
same,glycan array binding signal (z-score),[18],0.677
same,glycan array binding signal (z-score),[19],-0.276
same,glycan array binding signal (z-score),[20],-1.08
same,glycan array binding signal (z-score),[21],-0.412
same,glycan array binding signal (z-score),[22],0.271
same,glycan array binding signal (z-score),[23],0.819
same,glycan array binding signal (z-score),[24],1.13
same,glycan array binding signal (z-score),[25],0.097
same,glycan array binding signal (z-score),[26],0.49
same,glycan array binding signal (z-score),[27],-0.318
same,glycan array binding signal (z-score),[28],-0.057
same,glycan array binding signal (z-score),[29],-0.635
same,glycan array binding signal (z-score),[30],0.492
same,glycan array binding signal (z-score),[31],-0.596
same,glycan array binding signal (z-score),[32],-0.773
same,glycan array binding signal (z-score),[33],-0.531
same,glycan array binding signal (z-score),[34],1.34
same,glycan array binding signal (z-score),[35],0.051
same,glycan array binding signal (z-score),[36],-0.618
same,glycan array binding signal (z-score),[37],-0.683
same,glycan array binding signal (z-score),[38],1.35
same,glycan array binding signal (z-score),[39],0.055
same,glycan array binding signal (z-score),[40],-1.03
same,glycan array binding signal (z-score),[41],-0.603
same,glycan array binding signal (z-score),[42],-0.475
same,glycan array binding signal (z-score),[43],-0.069
same,glycan array binding signal (z-score),[44],-0.586
same,glycan array binding signal (z-score),[45],-0.357

# A portion of the results above, as a working copy:
binder,measurement,setting,value
B1,glycan array binding signal (z-score),[19],-0.276
same,glycan array binding signal (z-score),[20],-1.08
same,glycan array binding signal (z-score),[21],-0.412
same,glycan array binding signal (z-score),[22],0.271
